test: Hedonic profile (odor description) of odorants; conditions: Table 9

Row | Molecule | Hedonic Profile
1 | C=C(C)[C@H]1CC=C(C)CC1 [d-LIMONENE, d-1-Methyl-4-isopropenyl-1-cyclohexene] | lemon-like

same assay, conditions: Table 10

Row | Molecule | Hedonic Profile
2 | CCCC(=O)OCC [ETHYL BUTYRATE, Ethyl butyrate] | banana pineapple
3 | CCOC(=O)C(C)CC (stereo not drawn) [ETHYL 2-METHYLBUTYRATE, Ethyl 2-methylbutyrate] | green fruit apple peel
4 | CCCC(C)C(=O)OCC (stereo not drawn) [MANZANATE, Ethyl 2-methylpentanoate] | fruity apple
5 | CC1=CC(C)C(C=O)CC1 (stereo not drawn) [TRIPLAL] | green slightly
6 | C=CC(C)(O)CCC=C(C)C (stereo not drawn) [LINALOOL, linalool] | flowery fresh lily of the
7 | C=CC(C)CCCC(C)(C)O (stereo not drawn) [DIHYDROMYRCENOL] | fresh lime, overall citrus

same assay, conditions: Table 11

Row | Molecule | Hedonic Profile
8 | CCOC(=O)CC1(C)OCCO1 [FRUCTONE] | green apple-
9 | CC(C)=CCCC(C)CCO (stereo not drawn) [CITRONELLOL AJ, FCC, CITRONELLOL] | rose-like
10 | CC(=O)OC1CCCCC1C(C)(C)C (stereo not drawn) [VERDOX] | fruity agrumen
11 | C=CCOC(=O)CCCCCC [ALLYL HEPTOATE] | fruity banana
12 | CC/C=C\CCOC(=O)OC [LIFFAROME] | green fruity floral
13 | CCC(C)(O)CCC=C(C)C (stereo not drawn) [DIHYDROLINALOOL] | fresh floral citrus
14 | CCCCCC1CCC(=O)O1 (stereo not drawn) [ALDEHYDE C-18] | coconut
15 | CC(=O)OCc1ccccc1 [BENZYL ACETATE] | jasmine gardenia
16 | C=CC(C)(O)CCC=C(C)CC (mixture of isomers) [ETHYL LINALOOL] | floral
17 | CC(C)=CC1CC(C)CCO1 (stereo not drawn) [ROSE OXIDE (HIGH CIS), Tetrahydro-4-methyl-2-(2-methylpropen-1-yl)pyran] | geranium and carrot leaves
18 | CC/C=C\CCOC(C)=O [CIS-3-HEXENYL ACETATE] | green
19 | CCC(=O)OCc1ccccc1 [BENZYL PROPIONATE] | sweet fruity

same assay, conditions: Table 12

Row | Molecule | Hedonic Profile
20 | CC(=O)OC(C)(C)C1CC=C(C)CC1 (stereo not drawn) [TERPINYL ACETATE] | bergamot lavender
21 | CC(=O)OC1CCC(C(C)(C)C)CC1 (stereo not drawn) [VERTENEX HC] | woody
22 | CC(=O)C=CC1=C(C)CCCC1(C)C [IONONE BETA PURE, 4-(2,6,6-Trimethyl-1-cyclohexen-1-yl)-3-buten-2-one] | woody violet
23 | CC(=O)OC(C)(C)Cc1ccccc1 [DIMETHYL BENZYL CARBINYL ACETATE] | fresh green floral fruity

same assay, conditions: Table 13

Row | Molecule | Hedonic Profile
24 | CC/C(=C\CC1CC=C(C)C1(C)C)CO (stereo not drawn) [BACDANOL] | sandalwood
25 | CCCCCCC(C=O)=Cc1ccccc1 [HEXYL CINNAMIC ALDEHYDE, hexyl cinnamic aldehyde] | jasmine
26 | CCCCCCCC1CCC(=O)O1 (stereo not drawn) [GAMMA UNDECALACTONE] | peach
27 | CC(C)=CCCC(C)CCCC(C)C=O (stereo not drawn) [ADOXAL, 2,6,10-Trimethyl-9-undecenal] | floral
28 | CC=CC(=O)C1C(C)=CCCC1(C)C (stereo not drawn) [alpha-DAMASCONE, α-1-(2,6,6-Trimethyl-2-cyclohexen-1-yl)-2-buten-1-one] | fruity floral
29 | CC(C)c1cccc(C(C)CC=O)c1 (stereo not drawn) [FLORHYDRAL] | green floral lilly of the valley
30 | CCCCCCC1CCC(=O)O1 (stereo not drawn) [GAMMA-DECALACTONE, 5-Hexyldihydro-2(3H)-furanone] | peach
31 | CC1OC(C)C2Cc3ccccc3C2O1 (stereo not drawn) [MAGNOLAN/CORPS 719] | magnolia grapefruit
32 | OCc1ccccc1 [BENZYL ALCOHOL] | floral
33 | CCC=C(C)C(O)CCCCC (stereo not drawn) [UNDECAVERTOL, 4-Methyl-3-decen-5-ol] | green floral violet leaf like
34 | C=CCOC(=O)CCC1CCCCC1 [ALLYL CYCLOHEXYL PROPIONATE] | pineapple
35 | CC(C=O)Cc1ccc2c(c1)OCO2 (stereo not drawn) [HELIONAL] | green floral
36 | CC(C)CC1CC(C)(O)CCO1 (stereo not drawn) [FLOROL] | floral

same assay, conditions: Table 14

Row | Molecule | Hedonic Profile
37 | CCCCCC1C(=O)CCC1CC(=O)OC (stereo not drawn) [HEDIONE] | fruity jasmine
38 | CC1(C)CCC[C@]2(C)[C@H]3CCO[C@]3(C)CC[C@@H]12 [AMBROXAN] | ambergris
39 | CC=CC(=O)C1=C(C)C=CCC1(C)C [DAMASCENONE, 1-(2,6,6-Trimethylcyclohexa-1,3-dienyl)-2-buten-1-one] | rose
40 | CC1=CCC(CCC(C)C(C)O)C1(C)C (stereo not drawn) [SANDALORE] | sandalwood
41 | O=C1CCCCCCCCCCCCCCO1 [EXALTOLIDE TOTAL] | Musk
42 | VERTOFIX COEUR | woody
43 | O=C1CCCCCCCCCCCC(=O)OCCO1 [ETHYLENE BRASSYLATE] | Musk
44 | COC(=O)c1c(C)cc(O)c(C)c1O [METHYL ATRATATE] | Moss
45 | Cc1ccc2c(c1)OCC(=O)CO2 [CALONE] | fresh marine

Source: patent US7517840B2, “Optimized perfumery for rinse-off products” (Givaudan Fragrances Corporation, priority 2005, dated 2009)
